Results are given in words; binding and its absence hold for the method and conditions named. Some entries that bind do so weakly or less than the wild type. Sequences can lack the tags named with a protein.
How the values were obtained:
[1] = target: rsCD154 captured on the Biacore chip (UniProt P29965); experiment: Biacore, rsCD154 captured by anti CD154 antibody on CM5 chip
[2] = target: CD154 (ALX-522-015), immobilized on ELISA plates (UniProt P29965); experiment: ELISA, CD154 immobilized on the plate, detection with anti-CD40 antibody
[3] = target: rsCD154 captured on the Biacore chip (UniProt P29965); experiment: Biacore, rsCD154 captured by anti CD154 antibody on CM5 chip, analytes 20-400 nM

By UniProt entry, the sequences of proteins in these tests, tags left out. Residues count along the entry.
UniProt P29965, residues 116-261: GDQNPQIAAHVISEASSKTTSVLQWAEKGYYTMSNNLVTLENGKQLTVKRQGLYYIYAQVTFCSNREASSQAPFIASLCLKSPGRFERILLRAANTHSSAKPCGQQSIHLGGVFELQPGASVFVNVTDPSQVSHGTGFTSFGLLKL

Measured: binding

B1: CD40-skipping 6 protein fused to the Fc chain of Immunoglobulin IgG1 (CD40-Skip6-Fc) (Fc fusion, not shown: a dimerising Fc or GST)
chain: EPPTACREKQYLINSQCCSLCQPGQKLVSDCTEFTETECLPCGESEFLDTWNRETHCHQHKYCDPNLGLRVQQKGTSETDTICTCEEGWHCTSEACESCVLHRSCSPGFGVKQIATGVSDTICEPCPVGFFSNVSSAFEKCHPWTRSPGSAESPGGDPHHLRDPVCHPLGAGLYQKGGQEANQ
binds: all assays above

Source: patent publication US20050281815A1
